In this test the target is chloroplast ATP synthase (cATPase) subunit III, membrane ring (III)14 (Spinacia oleracea) (UniProt P69447). Put plainly: native MS; intact cATPase from n-dodecyl-β-D-maltopyranoside buffer exchanged into 200 mM ammonium acetate; micelle stripped by gas-phase activation (collision energy 100-200 V); complexes formed in solution and gas-phase dissociation products assigned with Massign; both purified.

Protein sequences, listed by entry. Tags and fused reporters are not part of them.
UniProt P69447: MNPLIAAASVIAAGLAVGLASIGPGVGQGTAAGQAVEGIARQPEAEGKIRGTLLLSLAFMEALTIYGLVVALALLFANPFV

Results are given in words; binding and its absence hold for the method and conditions named. Some results given as binding are weak or reduced against the parent protein; the word gives no strength.

For the substance “chloroplast ATP synthase (cATPase) subunit III, membrane ring (III)14 (from UniProt P69447 1-81)”, the binding result is recorded as “binds”.
